# Assay results: the supplement of paper PMC12819154, “High-throughput peptide-centric local stability assay extends protein–ligand identification to membrane proteins, tissues and bacteria” (Nature Structural & Molecular Biology, 2025)
# By UniProt entry, the sequences of proteins in these tests, tags left out. Where a name states a change or a piece, a line headed by the entry shows the natural chain unless it says otherwise.
# UniProt O95149, whole entry: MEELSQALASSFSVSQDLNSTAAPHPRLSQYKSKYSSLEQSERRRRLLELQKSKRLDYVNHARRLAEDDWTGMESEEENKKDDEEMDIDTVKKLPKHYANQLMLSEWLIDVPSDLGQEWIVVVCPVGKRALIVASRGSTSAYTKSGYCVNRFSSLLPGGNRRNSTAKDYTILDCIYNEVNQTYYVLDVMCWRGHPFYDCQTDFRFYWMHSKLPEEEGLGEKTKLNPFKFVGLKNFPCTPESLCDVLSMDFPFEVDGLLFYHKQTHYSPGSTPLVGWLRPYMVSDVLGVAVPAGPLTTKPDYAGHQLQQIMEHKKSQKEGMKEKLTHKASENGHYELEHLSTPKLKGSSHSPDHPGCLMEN
# UniProt O95249: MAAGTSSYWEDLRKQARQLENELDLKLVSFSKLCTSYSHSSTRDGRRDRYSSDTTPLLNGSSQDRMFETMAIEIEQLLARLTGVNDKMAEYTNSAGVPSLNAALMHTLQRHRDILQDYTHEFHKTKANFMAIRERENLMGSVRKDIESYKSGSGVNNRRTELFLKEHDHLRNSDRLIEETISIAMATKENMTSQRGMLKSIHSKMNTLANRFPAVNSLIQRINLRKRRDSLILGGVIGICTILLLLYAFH
# UniProt O95772: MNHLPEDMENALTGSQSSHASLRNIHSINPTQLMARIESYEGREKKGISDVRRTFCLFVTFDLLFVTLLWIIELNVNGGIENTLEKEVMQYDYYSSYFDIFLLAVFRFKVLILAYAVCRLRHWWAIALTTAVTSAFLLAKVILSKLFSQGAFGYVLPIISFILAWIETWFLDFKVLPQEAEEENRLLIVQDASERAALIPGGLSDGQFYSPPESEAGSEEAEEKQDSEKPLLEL
# UniProt O95639, whole entry: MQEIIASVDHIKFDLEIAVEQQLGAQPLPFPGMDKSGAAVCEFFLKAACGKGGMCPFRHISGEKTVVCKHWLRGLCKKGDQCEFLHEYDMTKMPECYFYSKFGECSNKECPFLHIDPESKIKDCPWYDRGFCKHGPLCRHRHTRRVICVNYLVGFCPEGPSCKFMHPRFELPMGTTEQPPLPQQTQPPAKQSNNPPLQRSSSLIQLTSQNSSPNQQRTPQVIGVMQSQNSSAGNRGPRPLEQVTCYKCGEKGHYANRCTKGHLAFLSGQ
# UniProt O95352: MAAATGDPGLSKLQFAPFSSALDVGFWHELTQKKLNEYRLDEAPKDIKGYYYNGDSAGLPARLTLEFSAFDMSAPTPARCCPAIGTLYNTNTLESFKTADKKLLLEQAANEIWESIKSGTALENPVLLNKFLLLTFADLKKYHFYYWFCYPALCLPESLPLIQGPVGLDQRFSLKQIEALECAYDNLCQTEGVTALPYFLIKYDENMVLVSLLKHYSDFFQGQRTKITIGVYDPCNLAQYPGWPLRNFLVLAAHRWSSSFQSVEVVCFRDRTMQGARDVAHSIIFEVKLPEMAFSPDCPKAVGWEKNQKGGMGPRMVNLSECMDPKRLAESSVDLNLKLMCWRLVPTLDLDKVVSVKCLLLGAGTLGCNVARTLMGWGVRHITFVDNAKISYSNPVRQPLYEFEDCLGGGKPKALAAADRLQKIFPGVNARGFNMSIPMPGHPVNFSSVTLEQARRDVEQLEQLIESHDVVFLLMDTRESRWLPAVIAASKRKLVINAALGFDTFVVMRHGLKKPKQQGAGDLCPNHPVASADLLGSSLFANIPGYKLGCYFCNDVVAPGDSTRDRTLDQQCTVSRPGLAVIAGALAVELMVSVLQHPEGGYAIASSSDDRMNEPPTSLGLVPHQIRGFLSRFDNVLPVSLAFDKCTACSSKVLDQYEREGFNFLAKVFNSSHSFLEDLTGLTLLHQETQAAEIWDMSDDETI
# UniProt O75925, whole entry: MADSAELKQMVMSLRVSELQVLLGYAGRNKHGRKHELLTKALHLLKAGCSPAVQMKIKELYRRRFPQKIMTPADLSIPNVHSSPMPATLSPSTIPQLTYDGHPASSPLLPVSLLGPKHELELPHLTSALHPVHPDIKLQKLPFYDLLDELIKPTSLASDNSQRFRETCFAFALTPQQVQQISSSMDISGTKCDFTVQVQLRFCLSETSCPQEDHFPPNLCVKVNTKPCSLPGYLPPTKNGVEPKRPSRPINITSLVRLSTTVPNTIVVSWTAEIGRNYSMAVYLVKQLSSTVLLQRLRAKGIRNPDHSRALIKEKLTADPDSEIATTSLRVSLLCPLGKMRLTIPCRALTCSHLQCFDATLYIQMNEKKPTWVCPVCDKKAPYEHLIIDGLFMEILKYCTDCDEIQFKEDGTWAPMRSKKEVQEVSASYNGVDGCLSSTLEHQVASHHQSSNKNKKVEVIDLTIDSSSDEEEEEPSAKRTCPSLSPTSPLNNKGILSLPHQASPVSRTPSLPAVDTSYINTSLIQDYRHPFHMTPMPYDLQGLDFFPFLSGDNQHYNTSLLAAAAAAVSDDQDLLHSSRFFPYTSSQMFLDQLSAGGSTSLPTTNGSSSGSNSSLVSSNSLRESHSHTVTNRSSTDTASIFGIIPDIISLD
# UniProt O75643, whole entry: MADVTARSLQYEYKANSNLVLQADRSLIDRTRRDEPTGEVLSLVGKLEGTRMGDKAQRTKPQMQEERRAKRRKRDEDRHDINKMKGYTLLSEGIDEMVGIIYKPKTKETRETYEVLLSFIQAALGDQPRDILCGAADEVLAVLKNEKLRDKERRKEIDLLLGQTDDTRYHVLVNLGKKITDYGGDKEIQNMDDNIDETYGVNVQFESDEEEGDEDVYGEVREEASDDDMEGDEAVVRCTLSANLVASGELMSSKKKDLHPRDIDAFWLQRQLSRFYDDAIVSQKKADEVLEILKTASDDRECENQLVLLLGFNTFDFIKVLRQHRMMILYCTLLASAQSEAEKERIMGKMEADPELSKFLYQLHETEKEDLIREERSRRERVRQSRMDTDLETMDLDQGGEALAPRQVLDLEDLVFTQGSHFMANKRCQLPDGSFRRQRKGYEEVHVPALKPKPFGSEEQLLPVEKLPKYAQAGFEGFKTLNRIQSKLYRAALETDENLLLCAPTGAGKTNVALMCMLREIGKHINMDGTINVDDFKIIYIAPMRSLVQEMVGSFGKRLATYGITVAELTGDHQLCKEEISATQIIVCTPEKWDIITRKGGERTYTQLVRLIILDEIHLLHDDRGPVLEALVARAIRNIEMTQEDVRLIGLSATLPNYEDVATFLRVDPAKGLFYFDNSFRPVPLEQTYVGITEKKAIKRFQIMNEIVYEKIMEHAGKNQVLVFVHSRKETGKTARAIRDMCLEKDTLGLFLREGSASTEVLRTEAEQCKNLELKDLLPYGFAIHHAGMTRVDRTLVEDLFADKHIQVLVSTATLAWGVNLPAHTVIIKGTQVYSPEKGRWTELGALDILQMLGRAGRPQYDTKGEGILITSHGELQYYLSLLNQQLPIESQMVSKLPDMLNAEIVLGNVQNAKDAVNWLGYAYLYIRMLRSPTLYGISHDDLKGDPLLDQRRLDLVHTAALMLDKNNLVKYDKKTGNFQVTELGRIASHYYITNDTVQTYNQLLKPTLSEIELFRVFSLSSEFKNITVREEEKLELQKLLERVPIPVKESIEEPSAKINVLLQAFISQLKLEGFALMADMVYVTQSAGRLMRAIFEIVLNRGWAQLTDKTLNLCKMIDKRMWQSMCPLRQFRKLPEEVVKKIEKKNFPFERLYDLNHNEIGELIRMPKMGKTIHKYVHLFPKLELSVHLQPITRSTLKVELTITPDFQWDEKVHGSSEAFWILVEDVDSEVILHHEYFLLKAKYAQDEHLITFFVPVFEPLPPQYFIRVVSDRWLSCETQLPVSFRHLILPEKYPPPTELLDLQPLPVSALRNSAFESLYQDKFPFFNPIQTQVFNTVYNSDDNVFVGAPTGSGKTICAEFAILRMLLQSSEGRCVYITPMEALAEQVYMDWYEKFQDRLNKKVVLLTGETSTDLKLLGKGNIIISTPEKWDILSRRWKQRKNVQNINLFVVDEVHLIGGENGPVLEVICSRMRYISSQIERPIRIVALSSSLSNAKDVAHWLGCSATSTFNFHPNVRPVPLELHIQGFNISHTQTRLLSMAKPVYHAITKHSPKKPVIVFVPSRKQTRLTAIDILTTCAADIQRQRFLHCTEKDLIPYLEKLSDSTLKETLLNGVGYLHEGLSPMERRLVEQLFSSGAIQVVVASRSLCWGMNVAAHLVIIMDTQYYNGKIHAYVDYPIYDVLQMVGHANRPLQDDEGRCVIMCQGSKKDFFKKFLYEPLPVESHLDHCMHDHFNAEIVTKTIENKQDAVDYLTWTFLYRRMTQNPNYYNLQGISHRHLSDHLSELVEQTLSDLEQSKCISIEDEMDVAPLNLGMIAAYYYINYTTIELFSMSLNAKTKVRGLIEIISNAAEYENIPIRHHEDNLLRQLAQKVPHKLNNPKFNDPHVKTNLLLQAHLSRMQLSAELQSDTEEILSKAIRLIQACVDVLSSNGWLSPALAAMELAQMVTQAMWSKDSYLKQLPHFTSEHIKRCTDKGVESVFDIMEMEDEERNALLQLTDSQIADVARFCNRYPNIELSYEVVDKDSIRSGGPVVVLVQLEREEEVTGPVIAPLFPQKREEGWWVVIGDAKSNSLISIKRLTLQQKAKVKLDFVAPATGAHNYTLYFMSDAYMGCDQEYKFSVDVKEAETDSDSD
# UniProt O75570: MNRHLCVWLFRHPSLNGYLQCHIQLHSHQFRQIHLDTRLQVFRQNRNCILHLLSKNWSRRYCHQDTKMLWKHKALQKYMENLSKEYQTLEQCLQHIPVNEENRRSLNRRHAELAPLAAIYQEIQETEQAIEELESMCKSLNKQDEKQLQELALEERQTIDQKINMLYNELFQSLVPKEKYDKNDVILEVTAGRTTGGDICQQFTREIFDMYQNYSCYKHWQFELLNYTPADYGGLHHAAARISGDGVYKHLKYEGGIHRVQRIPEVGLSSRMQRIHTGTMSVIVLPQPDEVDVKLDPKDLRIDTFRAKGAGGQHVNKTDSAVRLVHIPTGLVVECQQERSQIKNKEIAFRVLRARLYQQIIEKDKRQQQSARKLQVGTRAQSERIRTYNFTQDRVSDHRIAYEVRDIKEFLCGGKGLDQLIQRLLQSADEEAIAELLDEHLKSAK
# UniProt O76071: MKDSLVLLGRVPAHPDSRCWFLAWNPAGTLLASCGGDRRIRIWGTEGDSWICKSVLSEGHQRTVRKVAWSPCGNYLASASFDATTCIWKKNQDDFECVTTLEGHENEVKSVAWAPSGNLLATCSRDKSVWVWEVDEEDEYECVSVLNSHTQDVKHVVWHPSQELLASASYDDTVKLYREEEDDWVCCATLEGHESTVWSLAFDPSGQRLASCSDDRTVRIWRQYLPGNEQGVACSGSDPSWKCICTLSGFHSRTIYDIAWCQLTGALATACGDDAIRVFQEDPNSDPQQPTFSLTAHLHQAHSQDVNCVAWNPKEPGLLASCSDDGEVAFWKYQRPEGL
# UniProt O95347, whole entry: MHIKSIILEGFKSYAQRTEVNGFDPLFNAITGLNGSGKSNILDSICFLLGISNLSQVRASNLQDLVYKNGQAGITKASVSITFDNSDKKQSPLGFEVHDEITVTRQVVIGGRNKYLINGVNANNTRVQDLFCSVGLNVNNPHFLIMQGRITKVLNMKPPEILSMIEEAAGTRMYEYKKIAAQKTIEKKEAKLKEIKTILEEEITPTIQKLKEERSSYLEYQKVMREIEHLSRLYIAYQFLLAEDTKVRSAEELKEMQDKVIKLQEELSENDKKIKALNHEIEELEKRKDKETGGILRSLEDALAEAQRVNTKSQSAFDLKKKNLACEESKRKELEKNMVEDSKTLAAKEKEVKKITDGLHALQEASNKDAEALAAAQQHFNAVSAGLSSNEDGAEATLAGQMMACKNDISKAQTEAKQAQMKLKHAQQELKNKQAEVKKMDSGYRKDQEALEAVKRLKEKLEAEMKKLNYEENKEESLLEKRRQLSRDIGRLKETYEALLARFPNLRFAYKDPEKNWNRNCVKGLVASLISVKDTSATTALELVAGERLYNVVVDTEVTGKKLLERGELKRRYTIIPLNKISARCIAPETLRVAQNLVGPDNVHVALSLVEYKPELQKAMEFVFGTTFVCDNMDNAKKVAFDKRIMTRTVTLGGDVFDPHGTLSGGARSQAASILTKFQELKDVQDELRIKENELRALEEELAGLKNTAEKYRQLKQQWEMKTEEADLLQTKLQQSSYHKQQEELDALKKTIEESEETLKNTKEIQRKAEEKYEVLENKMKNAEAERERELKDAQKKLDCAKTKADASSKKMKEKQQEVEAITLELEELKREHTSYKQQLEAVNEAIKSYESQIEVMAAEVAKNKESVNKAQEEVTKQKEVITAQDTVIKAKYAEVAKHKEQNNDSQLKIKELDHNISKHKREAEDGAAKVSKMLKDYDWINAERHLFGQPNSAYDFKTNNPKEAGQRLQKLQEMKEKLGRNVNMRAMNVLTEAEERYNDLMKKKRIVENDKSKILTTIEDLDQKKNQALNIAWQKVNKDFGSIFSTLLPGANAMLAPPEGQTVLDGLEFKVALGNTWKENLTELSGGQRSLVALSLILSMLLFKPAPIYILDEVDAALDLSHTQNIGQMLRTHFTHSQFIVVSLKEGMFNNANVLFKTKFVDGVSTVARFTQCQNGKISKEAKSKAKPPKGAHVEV
# The list shows a part of the results. Small differences around the control level are noise.
# Compound: CN[C@@H]1C[C@H]2O[C@@](C)([C@@H]1OC)n1c3ccccc3c3c4c(c5c6ccccc6n2c5c31)C(=O)NC4 [staurosporine]
# Test: log2 fold change of tryptic peptide abundance, ligand vs vehicle (limited proteolysis) (log2 ratio); higher = more trypsin-susceptible (destabilized)
# Conditions: ligand concentration: 20 uM; sample: K562 cleared lysate; digestion: 4 min, 22 C (HT-PELSA RT4min, Orbitrap Astral)
row,Target,log2 fold change
1,"MAP4K4 (peptide sequence: NYMQRPSTEQLLK, peptide start residue: 273) (UniProt O95819)",-0.204
2,"SNUPN (peptide sequence: SKYSSLEQSER, peptide start residue: 33) (UniProt O95149)",0.168
3,"GOSR1 (peptide sequence: RTELFLK, peptide start residue: 159) (UniProt O95249)",0.155
4,"STARD3NL (peptide sequence: LLIVQDASER, peptide start residue: 186) (UniProt O95772)",-0.229
5,"UniProt O95166 (peptide sequence: IGDLDKKK, peptide start residue: 41)",-0.572
6,"CPSF4 (peptide sequence: SSSLIQLTSQNSSPNQQR, peptide start residue: 200) (UniProt O95639)",0.19
7,"ATG7 (peptide sequence: IFPGVNAR, peptide start residue: 424) (UniProt O95352)",0.356
8,"TULP3 (peptide sequence: TANYLISIDPVDLSR, peptide start residue: 246) (UniProt O75386)",0.239
9,"UniProt O95759 (peptide sequence: DRDSLVEALLAR, peptide start residue: 379)",0.135
10,"PIAS1 (peptide sequence: KHELLTK, peptide start residue: 34) (UniProt O75925)",0.552
11,"SNRNP200 (peptide sequence: DEPTGEVLSLVGKLEGTR, peptide start residue: 34) (UniProt O75643)",-0.13
12,"WDHD1 (peptide sequence: AYSCALKSGK, peptide start residue: 57) (UniProt O75717)",0.745
13,"MTRF1 (peptide sequence: YMENLSK, peptide start residue: 78) (UniProt O75570)",0.195
14,"CIAO1 (peptide sequence: HVVWHPSQELLASASYDDTVK, peptide start residue: 155) (UniProt O76071)",-0.289
15,"SMC2 (peptide sequence: TKFVDGVSTVAR, peptide start residue: 1159) (UniProt O95347)",0.226
